PubChem BioAssay AID504791 – Drosophila RNAi Screening Center, 2011
Purpose: 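Genes of the fly required for silencing by miRNA, siRNA or endo-siRNA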 (primary screen). Cell system: Drosophila S2-derived reporter cells. Reagent: long dsRNA against Drosophila genes, about 150-250 ng dsRNA per well (siRNA assay); about 80-120 ng (miRNA assay). Duration: about 5 days (siRNA assay); about 4 days (miRNA assay). Conditions: copper sulfate induction of reporters: 25 µM (siRNA assay); 200 mM stated (miRNA assay), 1-2 days before reading. Measurement: 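Dual luciferase assay: Renilla to firefly signal ratio in each well, scaled to the mean ratio of its plate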. Call rule: 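a well was a first-pass pick when its plate-scaled ratio rose above 1.5 (siRNA assay) or 1.6 (miRNA assay), or dropped below 0.6; a gene counted only if two separate dsRNAs agreed on retest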.
In all, the deposit lists about 23,000 reagents; shown is a random part of those with a known target gene and a result. In the full data, 199 (0.86%) were called active. 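Plate-scaled ratios behind the calls are not deposited; printed light signals are raw; many rows marked increased or decreased are still called inactive.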 The numbers tell different reagents against one gene apart. A plus sign joins genes that one reagent is predicted to hit. Reagent sequences are not shown. Not given: the direction of the score.

The opening 10 records as a preview:
no.	gene knocked down	reagent	stable siRNA reporter change	miRNA reporter change	stable assay Renilla, run 1 (luminescence)	stable assay firefly, run 1 (luminescence)	activity call
1	CG8668	1			11335	7.98e5	inactive
2	CG6294 + CG6299 + CG15642	1			6564	4.49e5	inactive
3	Ugt302C1 (UDP-glycosyltransferase family 302 member C1)	1			7932	4.13e5	inactive
4	CG4995	1			43796	3.69e5	inactive
5	PGAP3 (Post-GPI attachment to proteins 3)	1			1.06e5	1.26e6	inactive
6	CG17985	1			6758	3.29e5	inactive
7	Cortactin	1			7699	2.78e5	inactive
8	CG12496	1			6619	4.37e5	inactive
9	ND-18 (NADH dehydrogenase (ubiquinone) 18 kDa subunit)	1			5202	3.42e5	inactive
10	Torsin	1			3720	3.23e5	inactive

The listing, repeating the preview:
no.	gene knocked down	reagent	stable siRNA reporter change	miRNA reporter change	stable assay Renilla, run 1 (luminescence)	stable assay firefly, run 1 (luminescence)	activity call
1	CG8668	1			11335	7.98e5	inactive
2	CG6294 + CG6299 + CG15642	1			6564	4.49e5	inactive
3	Ugt302C1 (UDP-glycosyltransferase family 302 member C1)	1			7932	4.13e5	inactive
4	CG4995	1			43796	3.69e5	inactive
5	PGAP3 (Post-GPI attachment to proteins 3)	1			1.06e5	1.26e6	inactive
6	CG17985	1			6758	3.29e5	inactive
7	Cortactin	1			7699	2.78e5	inactive
8	CG12496	1			6619	4.37e5	inactive
9	ND-18 (NADH dehydrogenase (ubiquinone) 18 kDa subunit)	1			5202	3.42e5	inactive
10	Torsin	1			3720	3.23e5	inactive
11	CG1486	1			6855	4.73e5	inactive
12	CG30357	1			3651	2.95e5	inactive
13	Phax (Phosphorylated adaptor for RNA export)	1			8515	4.09e5	inactive
14	GlcT (Glucosylceramide synthase)	1			17051	5.75e5	inactive
15	BomT3 (Bomanin Tailed 3)	1			5064	4.31e5	inactive
16	BomT3 (Bomanin Tailed 3)	2			6714	3.33e5	inactive
17	veg (retired record)	1			6386	2.97e5	inactive
18	tai (taiman)	1	reporter ratio raised past the hit cutoff		6214	2.00e5	inactive
19	tai (taiman)	2			7139	4.43e5	inactive
20	how (held out wings)	1			5103	2.71e5	inactive
21	CG31600	1			4223	3.83e5	inactive
22	Trf4-1 (Topoisomerase related function 4-1)	1			6587	3.11e5	inactive
23	CG10631	1			74286	1.74e6	inactive
24	CG34238	1			4615	4.06e5	inactive
25	CG1371	1			7794	4.07e5	inactive
26	CG31675	1			4758	2.49e5	inactive
27	Ir85a (Ionotropic receptor 85a)	1			7578	3.89e5	inactive
28	Dpy-30L1 (Dpy-30-like 1)	1			7607	4.01e5	inactive
29	Paics (PAICS bifunctional enzyme)	1			8644	5.48e5	inactive
30	Liprin-alpha	1			9657	6.42e5	inactive
31	CG6435	1			7199	6.08e5	inactive
32	CG14903	1			7200	4.93e5	inactive
33	Pde9 (Phosphodiesterase 9)	1			5716	4.56e5	inactive
34	Pde9 (Phosphodiesterase 9)	2		reporter ratio raised past the hit cutoff	6586	4.64e5	inactive
35	Pde9 (Phosphodiesterase 9)	3			6532	5.31e5	inactive
36	Pde9 (Phosphodiesterase 9)	4			5575	5.16e5	inactive
37	CG10725	1			9888	5.63e5	inactive
38	lncRNA:CR31526 (long non-coding RNA:CR31526)	1			9818	6.16e5	inactive
39	CG17855	1			5746	3.71e5	inactive
40	UQCR-11L (Ubiquinol-cytochrome c reductase 11 kDa subunit-like)	1			9319	5.31e5	inactive
41	CG17575	1			5878	2.89e5	inactive
42	zetaTry (zetaTrypsin)	1			6251	3.07e5	inactive
43	Xe7	1			5535	3.62e5	inactive
44	Adgf-D (Adenosine deaminase-related growth factor D)	1			7446	3.37e5	inactive
45	CG10073	1			5327	3.06e5	inactive
46	Marcal1	1			7079	3.16e5	inactive
47	Obp83g (Odorant-binding protein 83g)	1			6907	3.68e5	inactive
48	CG30010	1			5007	4.45e5	inactive
49	Tret1-2 (Trehalose transporter 1-2)	1			4875	2.23e5	inactive
50	Gr92a (Gustatory receptor 92a)	1			9026	4.88e5	inactive
51	CG1239	1			11252	5.68e5	inactive
52	TfIIEbeta (Transcription factor IIEbeta)	1			5711	4.95e5	inactive
53	CG34302	1			6591	3.33e5	inactive
54	mRpL28 (mitochondrial ribosomal protein L28)	1			6099	4.18e5	inactive
55	CG30047	1			5620	3.07e5	inactive
56	Blos4	1			6539	4.00e5	inactive
57	CG10947	1			9573	2.45e6	inactive
58	unc79 (uncoordinated 79)	1			7845	3.40e5	inactive
59	mrt (martik)	1			6356	3.45e5	inactive
60	CG18675	1			5603	3.00e5	inactive
61	SdhCL (Succinate dehydrogenase, subunit C-like)	1			7386	3.57e5	inactive
62	Pvf2 (PDGF- and VEGF-related factor 2)	1			3339	3.54e5	inactive
63	Pvf2 (PDGF- and VEGF-related factor 2)	2			6792	4.02e5	inactive
64	CG15345 (retired record)	1			5035	4.66e5	inactive
65	CG15345 (retired record)	2			4176	3.82e5	inactive
66	l(2)34Fc (lethal (2) 34Fc)	1			7584	3.22e5	inactive
67	mbm + CG11555	1			7339	4.13e5	inactive
68	Lrch (Leucine-rich-repeats and calponin homology domain protein)	1			8134	2.18e6	inactive
69	Nubpl (NUBP iron-sulfur cluster assembly factor, mitochondrial)	1			43790	3.17e5	inactive
70	timeout	1			4964	4.14e5	inactive
71	timeout	2			7476	4.68e5	inactive
72	timeout	3			7903	4.95e5	inactive
73	timeout	4			7455	5.67e5	inactive
74	timeout	5			6294	4.11e5	inactive
75	timeout	6			10483	6.18e5	inactive
76	Pfdn6 (Prefoldin 6)	1			6564	3.43e5	inactive
77	CAH4 (Carbonic anhydrase 4)	1			4647	4.44e5	inactive
78	CG32425	1			6003	2.22e5	inactive
79	CG32425	2			8555	3.07e5	inactive
80	Rpn12 (Regulatory particle non-ATPase 12)	1	reporter ratio raised past the hit cutoff		6815	2.11e5	inactive
81	Trx2 (Thioredoxin 2)	1			7495	3.81e5	inactive
82	CG3764	1			7908	3.74e5	inactive
83	Tbc1d8-9 (TBC1 domain family member 8/9)	1			11121	5.26e5	inactive
